Experimental findings from the supplement of paper PMC11732987, “Enantioselective OTUD7B fragment discovery through chemoproteomics screening and high-throughput optimisation” (Communications Chemistry, 2025) are described below.

Sequences of proteins named here, by UniProt entry; tags and fusion partners are left off. A change or cut given only in a name is not applied to a line headed by its entry. Residues count along the entry.
UniProt Q9BQ52: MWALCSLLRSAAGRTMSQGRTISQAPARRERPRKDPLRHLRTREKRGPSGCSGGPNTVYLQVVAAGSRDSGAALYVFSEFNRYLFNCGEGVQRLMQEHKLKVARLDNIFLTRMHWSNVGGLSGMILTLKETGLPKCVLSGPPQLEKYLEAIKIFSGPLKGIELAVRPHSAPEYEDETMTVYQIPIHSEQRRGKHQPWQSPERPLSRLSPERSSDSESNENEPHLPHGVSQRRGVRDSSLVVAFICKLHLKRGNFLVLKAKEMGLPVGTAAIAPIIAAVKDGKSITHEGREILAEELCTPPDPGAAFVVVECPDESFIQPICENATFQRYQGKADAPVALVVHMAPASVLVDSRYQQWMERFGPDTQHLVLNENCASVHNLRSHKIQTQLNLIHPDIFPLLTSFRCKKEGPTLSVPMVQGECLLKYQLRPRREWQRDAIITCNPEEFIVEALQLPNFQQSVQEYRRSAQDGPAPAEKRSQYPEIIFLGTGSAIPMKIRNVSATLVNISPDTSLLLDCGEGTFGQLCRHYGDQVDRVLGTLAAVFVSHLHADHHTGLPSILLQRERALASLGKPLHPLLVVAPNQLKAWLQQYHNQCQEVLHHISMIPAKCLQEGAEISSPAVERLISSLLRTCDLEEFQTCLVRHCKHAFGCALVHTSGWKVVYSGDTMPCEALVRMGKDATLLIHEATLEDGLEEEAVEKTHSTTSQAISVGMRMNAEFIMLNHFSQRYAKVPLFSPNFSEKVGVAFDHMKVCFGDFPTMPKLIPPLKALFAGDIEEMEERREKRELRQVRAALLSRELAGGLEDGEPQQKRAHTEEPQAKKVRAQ
UniProt Q8N9N8: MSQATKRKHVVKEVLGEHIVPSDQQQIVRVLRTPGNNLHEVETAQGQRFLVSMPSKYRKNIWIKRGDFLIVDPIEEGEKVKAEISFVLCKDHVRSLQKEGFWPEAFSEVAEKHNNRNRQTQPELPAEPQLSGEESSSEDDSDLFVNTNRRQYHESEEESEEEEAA
UniProt Q14204, 2119-2148: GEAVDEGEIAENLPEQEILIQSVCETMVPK
UniProt Q9NR50: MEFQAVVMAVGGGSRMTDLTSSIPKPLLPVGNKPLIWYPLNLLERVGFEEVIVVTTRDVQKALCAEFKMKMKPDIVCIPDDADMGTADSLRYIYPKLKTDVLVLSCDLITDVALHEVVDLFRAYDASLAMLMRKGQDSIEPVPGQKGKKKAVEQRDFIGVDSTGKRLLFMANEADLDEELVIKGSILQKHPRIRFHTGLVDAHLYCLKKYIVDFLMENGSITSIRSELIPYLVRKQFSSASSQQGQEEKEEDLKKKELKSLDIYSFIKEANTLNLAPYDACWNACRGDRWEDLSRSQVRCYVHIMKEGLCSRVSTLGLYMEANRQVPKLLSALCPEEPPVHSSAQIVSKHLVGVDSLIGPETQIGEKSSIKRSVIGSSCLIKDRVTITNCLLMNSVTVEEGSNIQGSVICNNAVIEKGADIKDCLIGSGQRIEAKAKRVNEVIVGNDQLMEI
UniProt Q9UI10, 55-75: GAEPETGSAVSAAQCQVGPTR
UniProt P60981: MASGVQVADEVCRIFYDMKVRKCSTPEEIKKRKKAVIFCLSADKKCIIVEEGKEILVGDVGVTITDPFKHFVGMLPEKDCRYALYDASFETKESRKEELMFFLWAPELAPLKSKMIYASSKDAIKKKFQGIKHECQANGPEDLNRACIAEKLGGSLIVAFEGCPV
UniProt P05198, whole entry, looked up: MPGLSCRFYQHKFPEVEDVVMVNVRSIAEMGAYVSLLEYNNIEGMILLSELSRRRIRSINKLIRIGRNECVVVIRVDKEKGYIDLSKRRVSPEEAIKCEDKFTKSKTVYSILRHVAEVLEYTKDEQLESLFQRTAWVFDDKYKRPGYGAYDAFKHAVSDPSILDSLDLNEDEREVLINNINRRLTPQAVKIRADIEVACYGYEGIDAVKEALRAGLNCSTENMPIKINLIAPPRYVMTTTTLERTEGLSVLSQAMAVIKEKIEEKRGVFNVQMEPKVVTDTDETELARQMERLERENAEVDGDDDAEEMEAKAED
UniProt P15924: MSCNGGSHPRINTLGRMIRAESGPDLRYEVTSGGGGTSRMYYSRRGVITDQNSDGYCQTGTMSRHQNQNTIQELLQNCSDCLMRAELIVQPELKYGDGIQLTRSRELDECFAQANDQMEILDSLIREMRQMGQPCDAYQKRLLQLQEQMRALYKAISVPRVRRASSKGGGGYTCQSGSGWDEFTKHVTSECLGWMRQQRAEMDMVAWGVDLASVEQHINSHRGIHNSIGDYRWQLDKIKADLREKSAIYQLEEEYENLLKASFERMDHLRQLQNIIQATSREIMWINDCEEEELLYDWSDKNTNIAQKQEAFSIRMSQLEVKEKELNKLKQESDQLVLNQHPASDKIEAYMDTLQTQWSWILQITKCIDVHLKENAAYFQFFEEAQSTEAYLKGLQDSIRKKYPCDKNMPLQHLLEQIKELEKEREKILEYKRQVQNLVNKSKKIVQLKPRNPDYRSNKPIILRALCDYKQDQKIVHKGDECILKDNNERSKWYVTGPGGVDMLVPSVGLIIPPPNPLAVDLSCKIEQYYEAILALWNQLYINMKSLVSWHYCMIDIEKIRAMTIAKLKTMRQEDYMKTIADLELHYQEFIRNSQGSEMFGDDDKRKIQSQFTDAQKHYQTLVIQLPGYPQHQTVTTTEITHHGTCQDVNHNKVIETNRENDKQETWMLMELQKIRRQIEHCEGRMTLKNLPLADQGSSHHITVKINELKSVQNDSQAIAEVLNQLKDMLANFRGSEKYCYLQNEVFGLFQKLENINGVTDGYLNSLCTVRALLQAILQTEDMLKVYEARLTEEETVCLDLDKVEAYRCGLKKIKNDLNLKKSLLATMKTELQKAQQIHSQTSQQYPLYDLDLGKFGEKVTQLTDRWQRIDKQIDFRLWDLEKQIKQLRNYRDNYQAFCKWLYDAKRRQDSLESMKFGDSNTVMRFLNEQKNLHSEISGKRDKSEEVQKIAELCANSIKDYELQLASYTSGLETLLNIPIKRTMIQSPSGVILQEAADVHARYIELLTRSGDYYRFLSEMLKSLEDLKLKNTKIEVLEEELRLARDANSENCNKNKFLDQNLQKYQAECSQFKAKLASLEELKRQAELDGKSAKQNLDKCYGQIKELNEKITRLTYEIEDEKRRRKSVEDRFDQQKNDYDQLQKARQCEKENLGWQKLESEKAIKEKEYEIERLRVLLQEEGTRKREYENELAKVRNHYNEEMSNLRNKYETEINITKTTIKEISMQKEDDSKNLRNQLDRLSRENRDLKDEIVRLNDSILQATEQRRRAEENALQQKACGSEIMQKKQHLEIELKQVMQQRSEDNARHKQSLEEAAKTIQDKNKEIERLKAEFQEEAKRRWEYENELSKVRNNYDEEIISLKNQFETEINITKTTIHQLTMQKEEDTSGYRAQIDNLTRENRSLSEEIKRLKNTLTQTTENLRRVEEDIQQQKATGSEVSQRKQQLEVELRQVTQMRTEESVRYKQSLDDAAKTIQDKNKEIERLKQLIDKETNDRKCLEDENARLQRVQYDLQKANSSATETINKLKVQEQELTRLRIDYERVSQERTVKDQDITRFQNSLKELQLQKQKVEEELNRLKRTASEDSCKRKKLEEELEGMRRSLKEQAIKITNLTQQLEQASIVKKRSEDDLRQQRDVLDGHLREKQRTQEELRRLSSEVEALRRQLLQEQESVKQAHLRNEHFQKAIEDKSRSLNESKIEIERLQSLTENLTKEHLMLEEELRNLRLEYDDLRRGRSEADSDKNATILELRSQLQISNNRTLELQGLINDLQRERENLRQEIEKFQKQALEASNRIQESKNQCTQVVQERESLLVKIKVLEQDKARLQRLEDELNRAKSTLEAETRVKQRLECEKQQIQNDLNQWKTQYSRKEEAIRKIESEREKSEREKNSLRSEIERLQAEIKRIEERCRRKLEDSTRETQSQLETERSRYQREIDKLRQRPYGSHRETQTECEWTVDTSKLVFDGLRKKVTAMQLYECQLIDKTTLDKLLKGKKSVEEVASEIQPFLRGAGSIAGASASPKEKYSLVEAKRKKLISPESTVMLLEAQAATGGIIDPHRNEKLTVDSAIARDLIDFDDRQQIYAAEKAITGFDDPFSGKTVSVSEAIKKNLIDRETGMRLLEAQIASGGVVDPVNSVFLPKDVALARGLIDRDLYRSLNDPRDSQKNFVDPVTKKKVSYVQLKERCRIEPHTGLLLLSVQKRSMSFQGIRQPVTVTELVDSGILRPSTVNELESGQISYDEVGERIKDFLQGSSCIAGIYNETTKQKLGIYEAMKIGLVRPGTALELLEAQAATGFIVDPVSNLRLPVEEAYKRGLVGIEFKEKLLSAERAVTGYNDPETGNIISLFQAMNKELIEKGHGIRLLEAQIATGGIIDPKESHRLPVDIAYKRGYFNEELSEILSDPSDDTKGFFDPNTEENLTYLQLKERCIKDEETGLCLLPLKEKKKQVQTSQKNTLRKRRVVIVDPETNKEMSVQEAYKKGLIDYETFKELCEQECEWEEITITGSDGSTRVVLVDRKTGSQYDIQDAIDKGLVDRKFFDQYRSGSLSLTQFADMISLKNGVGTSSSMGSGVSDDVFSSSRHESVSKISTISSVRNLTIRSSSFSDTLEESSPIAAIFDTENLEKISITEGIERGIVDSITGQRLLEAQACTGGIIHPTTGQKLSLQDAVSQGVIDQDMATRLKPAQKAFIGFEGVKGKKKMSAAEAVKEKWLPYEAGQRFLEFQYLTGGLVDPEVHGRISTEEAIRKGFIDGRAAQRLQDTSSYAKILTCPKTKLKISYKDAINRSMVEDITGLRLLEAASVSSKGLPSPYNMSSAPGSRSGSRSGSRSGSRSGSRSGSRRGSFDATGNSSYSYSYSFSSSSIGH
UniProt P20042, whole entry, looked up: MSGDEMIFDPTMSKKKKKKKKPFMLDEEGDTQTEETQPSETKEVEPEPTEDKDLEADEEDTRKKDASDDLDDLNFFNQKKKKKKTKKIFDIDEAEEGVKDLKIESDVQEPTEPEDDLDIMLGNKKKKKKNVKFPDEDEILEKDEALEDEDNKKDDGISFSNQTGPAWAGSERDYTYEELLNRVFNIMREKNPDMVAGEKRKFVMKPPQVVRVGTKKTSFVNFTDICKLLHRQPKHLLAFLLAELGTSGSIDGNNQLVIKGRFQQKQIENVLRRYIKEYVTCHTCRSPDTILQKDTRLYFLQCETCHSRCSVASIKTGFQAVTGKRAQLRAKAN
UniProt Q9UHF1: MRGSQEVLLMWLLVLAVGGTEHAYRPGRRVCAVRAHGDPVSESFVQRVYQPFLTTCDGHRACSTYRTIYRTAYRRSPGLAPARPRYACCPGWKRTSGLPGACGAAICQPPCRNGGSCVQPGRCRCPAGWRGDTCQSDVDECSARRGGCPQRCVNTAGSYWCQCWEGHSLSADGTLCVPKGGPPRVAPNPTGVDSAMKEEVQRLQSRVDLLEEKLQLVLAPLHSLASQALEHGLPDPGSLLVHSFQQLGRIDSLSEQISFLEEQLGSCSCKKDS
UniProt P23919: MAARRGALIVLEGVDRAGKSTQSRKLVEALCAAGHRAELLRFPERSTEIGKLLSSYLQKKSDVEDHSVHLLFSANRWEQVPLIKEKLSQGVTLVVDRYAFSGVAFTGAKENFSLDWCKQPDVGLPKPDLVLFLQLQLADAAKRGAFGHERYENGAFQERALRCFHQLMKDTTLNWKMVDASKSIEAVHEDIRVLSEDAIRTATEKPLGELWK
UniProt Q96C19, 13-58: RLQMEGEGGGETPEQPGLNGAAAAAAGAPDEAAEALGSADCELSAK
UniProt Q9NZJ5, 802-823: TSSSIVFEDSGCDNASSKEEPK
UniProt Q9BVC3: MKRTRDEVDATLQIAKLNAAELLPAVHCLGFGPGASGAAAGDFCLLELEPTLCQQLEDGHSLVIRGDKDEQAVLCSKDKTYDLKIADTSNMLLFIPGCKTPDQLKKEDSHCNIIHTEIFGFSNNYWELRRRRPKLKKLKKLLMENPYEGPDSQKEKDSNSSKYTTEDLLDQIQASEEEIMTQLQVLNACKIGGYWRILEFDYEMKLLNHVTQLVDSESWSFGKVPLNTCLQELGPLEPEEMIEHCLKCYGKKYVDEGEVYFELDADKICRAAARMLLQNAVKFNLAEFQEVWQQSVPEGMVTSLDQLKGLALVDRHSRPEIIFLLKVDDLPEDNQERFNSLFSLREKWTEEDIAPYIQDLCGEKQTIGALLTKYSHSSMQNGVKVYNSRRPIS
UniProt Q7L2H7, whole entry, looked up: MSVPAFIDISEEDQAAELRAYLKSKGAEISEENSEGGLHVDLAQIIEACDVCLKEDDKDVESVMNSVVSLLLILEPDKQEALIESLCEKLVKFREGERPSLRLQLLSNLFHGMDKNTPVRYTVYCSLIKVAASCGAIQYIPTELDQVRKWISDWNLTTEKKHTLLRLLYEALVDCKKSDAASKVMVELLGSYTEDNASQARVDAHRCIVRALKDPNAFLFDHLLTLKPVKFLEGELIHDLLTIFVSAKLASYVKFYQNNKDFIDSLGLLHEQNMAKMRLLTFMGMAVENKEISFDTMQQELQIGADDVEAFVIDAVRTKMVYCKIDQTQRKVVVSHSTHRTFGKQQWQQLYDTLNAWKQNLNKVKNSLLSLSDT

Compound in experiment [1]: ClCC(=O)N[C@@H]1CCCc2ccccc12
Description: log2 mean competition ratio of IA-DTB cysteine labelling (DMSO/compound) (log2 ratio); higher = stronger cysteine engagement by compound. Particulars: treatment time: 4 h, cell line lysate: HEK293T. The procedure:
(§1)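 IA-DTB competitive cysteine chemoproteomics in HEK293T RIPA lysate. Lysates were treated with compound 29 or 30 at 50 or 200 µM for 4 h, then IA-DTB (500 µM, 1 h), trypsin-digested, NeutrAvidin-enriched and analysed by diaPASEF. Competition ratio = intensity DMSO / intensity compound (n=4 treated, n=64 DMSO); binding: mean log2 CR ≥ 1 and p ≤ 0.05 plus QC filters. Target is the cysteine site.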

Compound in experiment [2]: ClCC(=O)N[C@H]1CCCc2ccccc12
Described as above. Particulars: treatment time: 4 h, cell line lysate: HEK293T. The procedure:
as §1

This is one part of the list. The data scatter; read single values as rough.

With EI24 C24 (UniProt O14681), the “log2 mean competition ratio” value in experiment [1] (50 µM) was 0.492; in experiment [1] (200 µM), -0.238; in experiment [2] (50 µM), 0.891; in experiment [2] (200 µM), -0.169.

With ELAC2 C670 (UniProt Q9BQ52), the “log2 mean competition ratio” value was 0.254 in experiment [1] (50 µM), -0.00192 in experiment [1] (200 µM), 0.456 in experiment [2] (50 µM) and 0.009 in experiment [2] (200 µM).

Regarding EIF1AD C89 (UniProt Q8N9N8), the “log2 mean competition ratio” value in experiment [1] (50 µM) amounted to 0.772; in experiment [1] (200 µM), 0.339; in experiment [2] (50 µM), 0.616; in experiment [2] (200 µM) it was 0.19.

On to DYNC1H1 C2142 (UniProt Q14204), for which the “log2 mean competition ratio” value in experiment [1] (50 µM) is -0.226; in experiment [1] (200 µM) it was -0.406; in experiment [2] (50 µM), -0.0413; in experiment [2] (200 µM), 0.0461.

In the case of ECD C312 (UniProt O95905), the “log2 mean competition ratio” value in experiment [1] (50 µM) was 0.33; in experiment [1] (200 µM), 0.333; in experiment [2] (50 µM), -1.35; in experiment [2] (200 µM), 0.192.

For EIF2B3 C379 (UniProt Q9NR50), the “log2 mean competition ratio” value in experiment [1] (50 µM) is -0.0781; in experiment [1] (200 µM), 0.0224; in experiment [2] (50 µM), 0.123; in experiment [2] (200 µM), -0.0529.

As for EIF2B4 C69 (UniProt Q9UI10), the “log2 mean competition ratio” value was -0.186 in experiment [1] (50 µM), -0.0945 in experiment [1] (200 µM), -0.0318 in experiment [2] (50 µM) and -0.167 in experiment [2] (200 µM).

For EIF3G C139, the “log2 mean competition ratio” value in experiment [1] (50 µM) is -0.252; in experiment [1] (200 µM) it was 0.00142; in experiment [2] (50 µM), -0.638; in experiment [2] (200 µM), -0.0149.

EIF4G3 C301: the “log2 mean competition ratio” value in experiment [1] (50 µM) was -0.166; in experiment [1] (200 µM), -0.178; in experiment [2] (50 µM), 0.0788; in experiment [2] (200 µM) it was 0.0125.

Consider DSTN C12 (UniProt P60981), for which the “log2 mean competition ratio” value was -0.385 in experiment [1] (50 µM), 0.201 in experiment [1] (200 µM), -0.483 in experiment [2] (50 µM) and 0.329 in experiment [2] (200 µM).

For EIF2S1 C98 (UniProt P05198), the “log2 mean competition ratio” value in experiment [1] (50 µM) was 0.0516; in experiment [1] (200 µM) it was -0.304; in experiment [2] (50 µM), 0.185; in experiment [2] (200 µM), -0.273.

Take DYNC2H1 C1104 (UniProt Q8NCM8): the “log2 mean competition ratio” value in experiment [1] (50 µM) is 0.354; in experiment [1] (200 µM), -0.202; in experiment [2] (50 µM) it was 0.225; in experiment [2] (200 µM), -0.205.

Take EIF4G1 C919 (UniProt Q04637): the “log2 mean competition ratio” value in experiment [1] (50 µM) is -0.191; in experiment [1] (200 µM) it was -0.0318; in experiment [2] (50 µM), -0.314; in experiment [2] (200 µM), -0.201.

For DSP C2656 (UniProt P15924), the “log2 mean competition ratio” value in experiment [1] (50 µM) is -0.0508; in experiment [1] (200 µM), -0.376; in experiment [2] (50 µM), -0.385; in experiment [2] (200 µM), -0.352.

As to EED C126, the “log2 mean competition ratio” value in experiment [1] (50 µM) is -0.161; in experiment [1] (200 µM) it was -0.172; in experiment [2] (50 µM), -0.586; in experiment [2] (200 µM), -0.218.

As for EIF3C C443 (UniProt Q99613), the “log2 mean competition ratio” value was 0.448 in experiment [1] (50 µM), 0.0888 in experiment [1] (200 µM), -0.0496 in experiment [2] (50 µM) and 0.0551 in experiment [2] (200 µM).

With EIF2S2 C309 (UniProt P20042), the “log2 mean competition ratio” value was 0.127 in experiment [1] (50 µM), -0.0399 in experiment [1] (200 µM), 0.291 in experiment [2] (50 µM) and -0.0291 in experiment [2] (200 µM).

As to EGFL7 C56 (UniProt Q9UHF1), the “log2 mean competition ratio” value in experiment [1] (50 µM) came to 0.428; in experiment [1] (200 µM) it was 0.657; in experiment [2] (50 µM), 0.477; in experiment [2] (200 µM) it was 0.276.

As for DTYMK C117 (UniProt P23919), the “log2 mean competition ratio” value in experiment [1] (50 µM) is 0.148; in experiment [1] (200 µM), -0.0696; in experiment [2] (50 µM), 0.226; in experiment [2] (200 µM), 0.0411.

Turning to EFHD2 C53 (UniProt Q96C19), the “log2 mean competition ratio” value in experiment [1] (50 µM) was -0.329; in experiment [1] (200 µM), 0.186; in experiment [2] (50 µM), -0.0387; in experiment [2] (200 µM) it was -0.25.

Turning to EIF4B C457, the “log2 mean competition ratio” value in experiment [1] (50 µM) is 0.131; in experiment [1] (200 µM), -0.393; in experiment [2] (50 µM), 0.0139; in experiment [2] (200 µM), -0.447.

EDRF1 C1019 (UniProt Q3B7T1): the “log2 mean competition ratio” value is 0.00586 in experiment [1] (50 µM), 0.353 in experiment [1] (200 µM), -0.0282 in experiment [2] (50 µM) and 0.243 in experiment [2] (200 µM).

As for EIF2AK3 C813 (UniProt Q9NZJ5), the “log2 mean competition ratio” value in experiment [1] (50 µM) was 0.138; in experiment [1] (200 µM) it was -0.155; in experiment [2] (50 µM), 0.0809; in experiment [2] (200 µM) it was -0.102.

In the case of DYNC1LI1 C117 (UniProt Q9Y6G9), the “log2 mean competition ratio” value stood at 0.453 in experiment [1] (50 µM), 0.561 in experiment [1] (200 µM), 0.352 in experiment [2] (50 µM) and 0.0685 in experiment [2] (200 µM).

For the target EEFSEC C442 (UniProt P57772), the “log2 mean competition ratio” value was 0.0453 in experiment [1] (50 µM), -0.00893 in experiment [1] (200 µM), 0.0258 in experiment [2] (50 µM) and 0.00154 in experiment [2] (200 µM).

With DSTN C46 (UniProt P60981), the “log2 mean competition ratio” value was determined as 0.232 in experiment [1] (50 µM), 0.00465 in experiment [1] (200 µM), 0.444 in experiment [2] (50 µM) and 0.137 in experiment [2] (200 µM).

Take DROSHA C920 (UniProt Q9NRR4): the “log2 mean competition ratio” value in experiment [1] (50 µM) is -0.302; in experiment [1] (200 µM), -0.134; in experiment [2] (50 µM), 0.000112; in experiment [2] (200 µM), 0.0945.

As to DSCC1 C75 (UniProt Q9BVC3), the “log2 mean competition ratio” value in experiment [1] (50 µM) is -0.23; in experiment [1] (200 µM) it was 0.109; in experiment [2] (50 µM) it was -0.0449; in experiment [2] (200 µM), 0.152.

EIF4A2 C67 (UniProt Q14240): the “log2 mean competition ratio” value in experiment [1] (50 µM) is -0.14; in experiment [1] (200 µM) it was -0.484; in experiment [2] (50 µM) it was 0.524; in experiment [2] (200 µM), -0.066.

As for DUSP9 C27 (UniProt Q99956), the “log2 mean competition ratio” value is -0.00897 in experiment [1] (50 µM), 0.44 in experiment [1] (200 µM), -0.348 in experiment [2] (50 µM) and 0.565 in experiment [2] (200 µM).

EHMT2 C754: the “log2 mean competition ratio” value in experiment [1] (50 µM) was -0.0633; in experiment [1] (200 µM) it was 0.0646; in experiment [2] (50 µM), -0.25; in experiment [2] (200 µM), -0.565.

Take DYNC1H1 C4570 (UniProt Q14204): the “log2 mean competition ratio” value in experiment [1] (50 µM) is 0.152; in experiment [1] (200 µM), 0.0105; in experiment [2] (50 µM), 0.0985; in experiment [2] (200 µM), -0.048.

On to DSP C1805 (UniProt P15924), for which the “log2 mean competition ratio” value in experiment [1] (50 µM) was 0.147; in experiment [1] (200 µM), -0.0105; in experiment [2] (50 µM), 0.0252; in experiment [2] (200 µM) it was -0.0313.

As to EIF3M C175 (UniProt Q7L2H7), the “log2 mean competition ratio” value in experiment [1] (50 µM) was -0.0427; in experiment [1] (200 µM) it was -0.316; in experiment [2] (50 µM), -0.0527; in experiment [2] (200 µM), -0.166.
